Assay in all cases: EMSA
The test system of data set [1] is T1, ETS1 (human).
T1 sequence (looked up): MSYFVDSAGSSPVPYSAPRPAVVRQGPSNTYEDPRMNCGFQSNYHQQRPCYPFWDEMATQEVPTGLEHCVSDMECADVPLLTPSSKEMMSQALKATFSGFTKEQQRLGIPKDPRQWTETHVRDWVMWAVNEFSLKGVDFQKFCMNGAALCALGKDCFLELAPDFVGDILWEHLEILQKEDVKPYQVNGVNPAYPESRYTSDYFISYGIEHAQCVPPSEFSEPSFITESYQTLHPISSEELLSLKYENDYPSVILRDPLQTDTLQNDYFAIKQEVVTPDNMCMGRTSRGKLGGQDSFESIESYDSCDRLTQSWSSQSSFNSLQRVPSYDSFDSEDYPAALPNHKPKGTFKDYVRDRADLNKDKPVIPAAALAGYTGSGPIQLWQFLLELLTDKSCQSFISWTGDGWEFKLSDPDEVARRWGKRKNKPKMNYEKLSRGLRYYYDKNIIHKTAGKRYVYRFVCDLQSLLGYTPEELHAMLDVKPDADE
The following applies: EMSA conditions not printed (as previously described, ref 5); protein stock in 10 mM Tris pH 7.9, 0.5 mM EDTA, 200 mM KCl, 1 mM DTT, 10% glycerol; recombinant protein; residues 1-485; protein details: N-term 6xHis. (In general: In EMSA bound probe runs differently from free probe, usually more slowly.)

Sequences of proteins named here, by UniProt entry; tags and fusion partners are left off. A change or cut given only in a name is not applied to a line headed by its entry.
UniProt Q9Y603, whole entry A86D: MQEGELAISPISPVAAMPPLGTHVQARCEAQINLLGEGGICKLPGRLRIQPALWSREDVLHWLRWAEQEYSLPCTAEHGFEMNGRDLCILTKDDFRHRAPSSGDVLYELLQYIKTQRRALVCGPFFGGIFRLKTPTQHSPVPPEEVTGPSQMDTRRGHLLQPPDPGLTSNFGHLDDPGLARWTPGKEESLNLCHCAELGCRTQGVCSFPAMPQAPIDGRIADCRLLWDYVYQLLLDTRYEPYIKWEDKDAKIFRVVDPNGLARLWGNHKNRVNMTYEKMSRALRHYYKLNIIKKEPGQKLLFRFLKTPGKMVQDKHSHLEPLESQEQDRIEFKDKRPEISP
UniProt Q99607: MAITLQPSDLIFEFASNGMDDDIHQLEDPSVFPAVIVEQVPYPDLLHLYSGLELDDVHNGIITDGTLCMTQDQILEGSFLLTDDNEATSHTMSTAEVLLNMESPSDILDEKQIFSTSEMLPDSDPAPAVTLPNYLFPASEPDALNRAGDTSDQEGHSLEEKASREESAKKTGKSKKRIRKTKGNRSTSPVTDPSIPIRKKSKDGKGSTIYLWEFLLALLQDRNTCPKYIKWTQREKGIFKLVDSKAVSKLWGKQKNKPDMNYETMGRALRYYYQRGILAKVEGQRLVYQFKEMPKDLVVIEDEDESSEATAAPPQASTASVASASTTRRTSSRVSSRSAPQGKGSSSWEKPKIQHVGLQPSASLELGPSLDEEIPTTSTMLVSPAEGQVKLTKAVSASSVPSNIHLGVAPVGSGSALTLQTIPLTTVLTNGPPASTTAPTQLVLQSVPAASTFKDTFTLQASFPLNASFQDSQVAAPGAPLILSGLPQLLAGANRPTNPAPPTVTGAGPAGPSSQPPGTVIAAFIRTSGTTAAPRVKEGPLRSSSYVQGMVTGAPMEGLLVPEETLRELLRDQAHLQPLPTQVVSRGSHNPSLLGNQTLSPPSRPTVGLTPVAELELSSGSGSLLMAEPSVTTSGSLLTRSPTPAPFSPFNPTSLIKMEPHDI

The target in data set [2] is T2, ELK3 (human) (UniProt P41970).
T2 sequence (looked up): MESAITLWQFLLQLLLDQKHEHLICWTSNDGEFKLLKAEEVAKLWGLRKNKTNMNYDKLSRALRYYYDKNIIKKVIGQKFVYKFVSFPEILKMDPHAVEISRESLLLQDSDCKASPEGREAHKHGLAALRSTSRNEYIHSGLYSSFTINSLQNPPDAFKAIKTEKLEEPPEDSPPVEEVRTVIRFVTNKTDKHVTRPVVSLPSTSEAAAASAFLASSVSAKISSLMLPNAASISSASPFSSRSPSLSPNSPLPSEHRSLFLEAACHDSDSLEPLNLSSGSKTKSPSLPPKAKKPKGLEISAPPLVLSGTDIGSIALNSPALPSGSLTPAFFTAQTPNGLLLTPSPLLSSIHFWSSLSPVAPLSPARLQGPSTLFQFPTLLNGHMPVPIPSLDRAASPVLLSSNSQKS
The following applies: EMSA conditions not printed (as previously described, ref 5); protein stock in 10 mM Tris pH 7.9, 0.5 mM EDTA, 200 mM KCl, 1 mM DTT, 10% glycerol; recombinant protein; residues 1-407; protein details: N-term 6xHis.

Data set [3] concerns the target T3, ETV3 (human) (UniProt P41162).
T3 sequence (looked up): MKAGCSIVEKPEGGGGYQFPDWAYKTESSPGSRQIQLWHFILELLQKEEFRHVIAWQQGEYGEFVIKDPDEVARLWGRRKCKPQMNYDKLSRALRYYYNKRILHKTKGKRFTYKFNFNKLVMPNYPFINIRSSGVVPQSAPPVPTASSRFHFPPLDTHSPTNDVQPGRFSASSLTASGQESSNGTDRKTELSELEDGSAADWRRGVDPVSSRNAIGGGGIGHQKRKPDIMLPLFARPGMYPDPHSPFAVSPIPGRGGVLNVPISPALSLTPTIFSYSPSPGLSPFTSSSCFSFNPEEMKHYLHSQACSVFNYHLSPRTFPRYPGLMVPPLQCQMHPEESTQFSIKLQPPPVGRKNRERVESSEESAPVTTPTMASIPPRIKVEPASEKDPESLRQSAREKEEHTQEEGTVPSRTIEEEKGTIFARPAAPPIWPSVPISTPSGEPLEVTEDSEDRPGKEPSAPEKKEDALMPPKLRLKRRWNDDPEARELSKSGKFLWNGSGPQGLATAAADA
To be noted: EMSA conditions not printed (as previously described, ref 5); protein stock in 10 mM Tris pH 7.9, 0.5 mM EDTA, 200 mM KCl, 1 mM DTT, 10% glycerol; recombinant protein; residues 1-512; protein details: N-term 6xHis.

Data set [4] relates to T4, ELF5 (human).
T4 sequence (looked up): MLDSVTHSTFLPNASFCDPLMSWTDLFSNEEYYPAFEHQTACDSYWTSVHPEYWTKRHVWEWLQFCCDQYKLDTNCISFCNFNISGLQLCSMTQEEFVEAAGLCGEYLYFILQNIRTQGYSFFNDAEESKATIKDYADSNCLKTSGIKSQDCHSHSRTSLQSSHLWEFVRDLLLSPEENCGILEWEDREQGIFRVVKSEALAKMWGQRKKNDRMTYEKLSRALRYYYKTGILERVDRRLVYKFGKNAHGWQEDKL
To be noted: EMSA conditions not printed (as previously described, ref 5); protein stock in 10 mM Tris pH 7.9, 0.5 mM EDTA, 200 mM KCl, 1 mM DTT, 10% glycerol; recombinant protein; residues 1-255; protein details: N-term 6xHis.

Data set [5] concerns the target T5, SPIC (human) (UniProt Q8N5J4).
T5 sequence (looked up): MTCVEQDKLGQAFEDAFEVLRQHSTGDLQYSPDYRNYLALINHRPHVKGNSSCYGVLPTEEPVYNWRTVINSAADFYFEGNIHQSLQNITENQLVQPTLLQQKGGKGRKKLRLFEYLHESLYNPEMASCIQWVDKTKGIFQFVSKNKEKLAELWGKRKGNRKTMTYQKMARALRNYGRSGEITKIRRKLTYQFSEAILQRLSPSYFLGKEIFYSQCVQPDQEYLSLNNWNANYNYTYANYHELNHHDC
The following applies: low affinity, likely autoinhibition; EMSA conditions not printed (as previously described, ref 5); protein stock in 10 mM Tris pH 7.9, 0.5 mM EDTA, 200 mM KCl, 1 mM DTT, 10% glycerol; recombinant protein; residues 1-248; protein details: N-term 6xHis.

The target in data set [6] is ETV7 A86D (human) (UniProt Q9Y603). The following applies: EMSA conditions not printed (as previously described, ref 5); protein stock in 10 mM Tris pH 7.9, 0.5 mM EDTA, 200 mM KCl, 1 mM DTT, 10% glycerol; recombinant protein; residues 1-341; protein details: N-term 6xHis.
Data set [7] has as its target ELF4 (human) (UniProt Q99607). To be noted: EMSA conditions not printed (as previously described, ref 5); protein stock in 10 mM Tris pH 7.9, 0.5 mM EDTA, 200 mM KCl, 1 mM DTT, 10% glycerol; recombinant protein; residues 1-663; protein details: N-term 6xHis.

Construct, isoform or probe ends are uncertain for at least one entry. For some of these results: A weaker result is weaker than the reference pair of the same experiment. For some of these results: Protein sequences can lack the tags named with them. For some of these results: At least one verdict was read from the data and is not stated in words by the source.

For “GCCACGGCCCAGGAAGTGACTCACCCACCCTGATG (double strand) [ETS consensus EMSA probe]”, the binding result in data set [1] is given as “binds”; in data set [2], “binds”; in data set [3], “binds”; in data set [4], “binds”; in data set [5] it was “binds more weakly”; in data set [6], “binds”. Moreover, the binding result in data set [7] is reported as “binds”.

The values above are taken from PMC4338625.
